Assay results as given in doi:10.1101/067827 (bioRxiv, 2016).
No constants are given. Whether binding was seen depends on the method and setting. For some of these results: Binding seen in cells or lysates may run through a third protein. Some binding calls cover weakened binding; strength is not graded here. For some of these results: Sequences can lack the tags named with a protein.

B1: MCAK (endogenous, mitotic U2OS cells) (protein, UniProt Q99661 1-725)
chain: MAMDSSLQARLFPGLAIKIQRSNGLIHSANVRTVNLEKSCVSVEWAEGGATKGKEIDFDDVAAINPELLQLLPLHPKDNLPLQENVTIQKQKRRSVNSKIPAPKESLRSRSTRMSTVSELRITAQENDMEVELPAAANSRKQFSVPPAPTRPSCPAVAEIPLRMVSEEMEEQVHSIRGSSSANPVNSVRRKSCLVKEVEKMKNKREEKKAQNSEMRMKRAQEYDSSFPNWEFARMIKEFRATLECHPLTMTDPIEEHRICVCVRKRPLNKQELAKKEIDVISIPSKCLLLVHEPKLKVDLTKYLENQAFCFDFAFDETASNEVVYRFTARPLVQTIFEGGKATCFAYGQTGSGKTHTMGGDLSGKAQNASKGIYAMASRDVFLLKNQPCYRKLGLEVYVTFFEIYNGKLFDLLNKKAKLRVLEDGKQQVQVVGLQEHLVNSADDVIKMIDMGSACRTSGQTFANSNSSRSHACFQIILRAKGRMHGKFSLVDLAGNERGADTSSADRQTRMEGAEINKSLLALKECIRALGQNKAHTPFRESKLTQVLRDSFIGENSRTCMIATISPGISSCEYTLNTLRYADRVKELSPHSGPSGEQLIQMETEEMEACSNGALIPGNLSKEEEELSSQMSSFNEAMTQIRELEEKAMEELKEIIQQGPDWLELSEMTEQPDYDLETFVNKAESALAQQAKHFSALRDVIKALRLAMQLEEQASRQISSKKRPQ
B2: MCAK-His6 (purified full-length MCAK) (enzyme, UniProt Q99661 1-725, looked up)
chain: MAMDSSLQARLFPGLAIKIQRSNGLIHSANVRTVNLEKSCVSVEWAEGGATKGKEIDFDDVAAINPELLQLLPLHPKDNLPLQENVTIQKQKRRSVNSKIPAPKESLRSRSTRMSTVSELRITAQENDMEVELPAAANSRKQFSVPPAPTRPSCPAVAEIPLRMVSEEMEEQVHSIRGSSSANPVNSVRRKSCLVKEVEKMKNKREEKKAQNSEMRMKRAQEYDSSFPNWEFARMIKEFRATLECHPLTMTDPIEEHRICVCVRKRPLNKQELAKKEIDVISIPSKCLLLVHEPKLKVDLTKYLENQAFCFDFAFDETASNEVVYRFTARPLVQTIFEGGKATCFAYGQTGSGKTHTMGGDLSGKAQNASKGIYAMASRDVFLLKNQPCYRKLGLEVYVTFFEIYNGKLFDLLNKKAKLRVLEDGKQQVQVVGLQEHLVNSADDVIKMIDMGSACRTSGQTFANSNSSRSHACFQIILRAKGRMHGKFSLVDLAGNERGADTSSADRQTRMEGAEINKSLLALKECIRALGQNKAHTPFRESKLTQVLRDSFIGENSRTCMIATISPGISSCEYTLNTLRYADRVKELSPHSGPSGEQLIQMETEEMEACSNGALIPGNLSKEEEELSSQMSSFNEAMTQIRELEEKAMEELKEIIQQGPDWLELSEMTEQPDYDLETFVNKAESALAQQAKHFSALRDVIKALRLAMQLEEQASRQISSKKRPQ

Columns and labels:
[1] = biological target: T1, NFLAP-GTSE1 (BAC-expressed, GFP-tagged GTSE1) (human) (UniProt Q9NYZ3); assay: co-IP
T1 sequence: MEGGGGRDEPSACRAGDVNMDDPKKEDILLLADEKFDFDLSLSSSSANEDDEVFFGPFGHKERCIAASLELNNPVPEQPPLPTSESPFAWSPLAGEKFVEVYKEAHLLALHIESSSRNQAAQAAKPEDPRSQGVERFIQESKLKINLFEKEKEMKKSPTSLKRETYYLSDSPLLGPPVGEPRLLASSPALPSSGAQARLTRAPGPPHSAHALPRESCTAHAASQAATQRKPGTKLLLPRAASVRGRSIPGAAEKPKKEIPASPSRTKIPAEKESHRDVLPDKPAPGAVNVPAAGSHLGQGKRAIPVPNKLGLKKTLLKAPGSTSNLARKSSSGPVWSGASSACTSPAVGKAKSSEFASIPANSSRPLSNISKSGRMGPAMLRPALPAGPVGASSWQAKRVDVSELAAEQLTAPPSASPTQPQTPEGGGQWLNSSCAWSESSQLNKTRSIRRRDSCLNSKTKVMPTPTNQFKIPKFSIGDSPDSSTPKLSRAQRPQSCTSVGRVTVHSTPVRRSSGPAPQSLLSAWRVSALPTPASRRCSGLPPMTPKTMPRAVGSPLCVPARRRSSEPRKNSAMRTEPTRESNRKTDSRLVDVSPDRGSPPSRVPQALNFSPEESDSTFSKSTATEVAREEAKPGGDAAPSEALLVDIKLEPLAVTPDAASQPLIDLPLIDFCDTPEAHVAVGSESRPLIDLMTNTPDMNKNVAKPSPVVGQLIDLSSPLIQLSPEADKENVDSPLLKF

[2] = biological target: T2, GTSE1 (endogenous, mitotic U2OS cells) (human (endogenous in U2OS)) (UniProt Q9NYZ3); assay: co-IP
T2 sequence: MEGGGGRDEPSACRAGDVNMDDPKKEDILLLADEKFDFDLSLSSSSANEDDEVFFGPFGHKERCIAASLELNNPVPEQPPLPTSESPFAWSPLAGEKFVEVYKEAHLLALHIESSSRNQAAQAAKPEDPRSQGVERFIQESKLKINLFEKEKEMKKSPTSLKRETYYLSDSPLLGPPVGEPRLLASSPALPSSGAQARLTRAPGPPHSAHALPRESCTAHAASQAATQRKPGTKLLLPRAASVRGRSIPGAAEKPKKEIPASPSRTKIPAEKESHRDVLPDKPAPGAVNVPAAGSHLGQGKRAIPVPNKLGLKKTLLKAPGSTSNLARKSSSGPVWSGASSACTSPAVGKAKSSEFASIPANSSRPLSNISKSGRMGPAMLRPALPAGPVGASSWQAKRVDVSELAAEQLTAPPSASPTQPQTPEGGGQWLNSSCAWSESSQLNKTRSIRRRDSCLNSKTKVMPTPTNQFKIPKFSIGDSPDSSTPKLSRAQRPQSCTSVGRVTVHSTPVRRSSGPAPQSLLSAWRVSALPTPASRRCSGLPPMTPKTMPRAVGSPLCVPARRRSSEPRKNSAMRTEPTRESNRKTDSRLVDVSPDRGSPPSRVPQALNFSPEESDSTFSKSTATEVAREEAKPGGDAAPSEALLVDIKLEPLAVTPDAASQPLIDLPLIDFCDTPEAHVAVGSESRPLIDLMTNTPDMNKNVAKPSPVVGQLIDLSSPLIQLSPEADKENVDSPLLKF

[3] = biological target: T3, GST-hGTSE1 1-460 (N-terminal fragment) (human) (UniProt Q9NYZ3); assay: pull-down
T3 sequence: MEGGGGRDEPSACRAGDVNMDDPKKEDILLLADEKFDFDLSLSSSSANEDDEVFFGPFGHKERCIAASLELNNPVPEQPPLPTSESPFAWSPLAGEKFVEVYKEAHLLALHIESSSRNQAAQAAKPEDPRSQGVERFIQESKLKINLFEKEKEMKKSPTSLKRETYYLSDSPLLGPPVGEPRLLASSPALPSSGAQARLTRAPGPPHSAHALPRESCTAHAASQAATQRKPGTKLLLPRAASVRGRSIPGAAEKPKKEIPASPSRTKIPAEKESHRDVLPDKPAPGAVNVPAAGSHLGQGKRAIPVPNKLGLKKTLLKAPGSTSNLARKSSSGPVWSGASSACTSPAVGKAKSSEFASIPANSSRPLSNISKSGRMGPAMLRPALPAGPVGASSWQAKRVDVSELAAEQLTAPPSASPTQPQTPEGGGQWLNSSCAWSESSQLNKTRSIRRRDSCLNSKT

[4] = biological target: T4, GST-hGTSE1 463-739 (C-terminal fragment) (human) (UniProt Q9NYZ3); assay: pull-down
T4 sequence: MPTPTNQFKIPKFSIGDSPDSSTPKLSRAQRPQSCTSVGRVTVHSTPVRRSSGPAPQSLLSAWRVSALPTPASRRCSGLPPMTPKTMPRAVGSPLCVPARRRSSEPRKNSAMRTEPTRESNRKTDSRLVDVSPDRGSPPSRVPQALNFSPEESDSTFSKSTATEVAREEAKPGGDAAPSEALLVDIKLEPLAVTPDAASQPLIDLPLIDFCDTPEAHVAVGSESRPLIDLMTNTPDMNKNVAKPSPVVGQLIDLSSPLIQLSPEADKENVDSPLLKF

Binder	binding [1]	binding [2]	binding [3]	binding [4]
B1	binds	binds		
B2			binds	no binding
